Test results as given in PubChem BioAssay AID188 (DTP/NCI, 2004).
The mice bore no tumour; each value counts animals alive of those treated. Counts of survivors are from the toxicity check (mostly the fifth day) where no day follows; animals may have died later. Schedules are NCI's codes, read here as Q, the interval in days (D) or hours (H), X, the number of doses. Signs of the kind (2×) count equal records among those shown. Some entries were tested several times; the results are listed from low to high.

Tested on: CD2F1 mice, nontumored, toxicity/survival
Experiment: NCI In Vivo Anticancer Drug Screen. Data for tumor model Nontumored Animals (Toxicity Test) in CD2F1 (CDF1) mice

Measured: survivor count

NC(CSC(c1ccccc1)(c1ccccc1)c1ccccc1)C(=O)O (stereo not drawn)
7 of 8: dose: 80.0 mg/kg/injection, schedule: Q01DX001 (ip), vehicle: water | dose: 125.0 mg/kg/injection, schedule: Q03HX016 (oral), vehicle: clinical formulation | dose: 160.0 mg/kg/injection, schedule: Q01DX001 (sc), vehicle: water | dose: 160.0 mg/kg/injection, schedule: Q01DX009 (sc), vehicle: water | dose: 250.0 mg/kg/injection, schedule: Q03HX016 (oral), vehicle: clinical formulation | dose: 250.0 mg/kg/injection, schedule: Q03HX024 (oral), vehicle: clinical formulation | dose: 320.0 mg/kg/injection, schedule: Q01DX001 (oral), vehicle: water | dose: 1280.0 mg/kg/injection, schedule: Q01DX001 (oral), vehicle: water | dose: 2000.0 mg/kg/injection, schedule: Q04DX003 (oral), vehicle: clinical formulation | dose: 4000.0 mg/kg/injection, schedule: Q08DX002 (oral), vehicle: clinical formulation
5 of 8: dose: 40.0 mg/kg/injection, schedule: Q03HX008 (ip), vehicle: water | dose: 40.0 mg/kg/injection, schedule: Q03HX016 (ip), vehicle: water | dose: 500.0 mg/kg/injection, schedule: Q03HX008 (oral), vehicle: clinical formulation
0 of 8: dose: 80.0 mg/kg/injection, schedule: Q03HX008 (ip), vehicle: water | dose: 80.0 mg/kg/injection, schedule: Q03HX016 (ip), vehicle: water | dose: 160.0 mg/kg/injection, schedule: Q01DX009 (ip), vehicle: water | dose: 160.0 mg/kg/injection, schedule: Q04DX003 (ip), vehicle: water | dose: 160.0 mg/kg/injection, schedule: Q08DX002 (ip), vehicle: water | dose: 320.0 mg/kg/injection, schedule: Q01DX001 (ip), vehicle: water | dose: 320.0 mg/kg/injection, schedule: Q04DX003 (ip), vehicle: water | dose: 320.0 mg/kg/injection, schedule: Q08DX002 (ip), vehicle: water | dose: 640.0 mg/kg/injection, schedule: Q01DX001 (ip), vehicle: water | dose: 640.0 mg/kg/injection, schedule: Q08DX002 (ip), vehicle: water
3 of 8: dose: 500.0 mg/kg/injection, schedule: Q03HX016 (oral), vehicle: clinical formulation
7 of 8 and 8 of 8: dose: 40.0 mg/kg/injection, schedule: Q01DX009 (ip), vehicle: water | dose: 320.0 mg/kg/injection, schedule: Q01DX009 (oral), vehicle: water
5 of 8 (2×): dose: 40.0 mg/kg/injection, schedule: Q03HX024 (ip), vehicle: water
6 of 8 and 8 of 8: dose: 80.0 mg/kg/injection, schedule: Q04DX003 (ip), vehicle: water
1 of 8: dose: 160.0 mg/kg/injection, schedule: Q01DX001 (ip), vehicle: water | dose: 1280.0 mg/kg/injection, schedule: Q01DX001 (sc), vehicle: water
6 of 8: dose: 80.0 mg/kg/injection, schedule: Q08DX002 (ip), vehicle: water | dose: 250.0 mg/kg/injection, schedule: Q03HX008 (oral), vehicle: clinical formulation
2 of 8 and 3 of 6: dose: 80.0 mg/kg/injection, schedule: Q01DX009 (ip), vehicle: water
8 of 8: dose: 3.9 mg/kg/injection, schedule: Q01DX009 (ip), vehicle: clinical formulation | dose: 7.8 mg/kg/injection, schedule: Q01DX009 (ip), vehicle: clinical formulation | dose: 10.0 mg/kg/injection, schedule: Q03HX008 (ip), vehicle: water | dose: 10.0 mg/kg/injection, schedule: Q03HX016 (ip), vehicle: water | dose: 10.0 mg/kg/injection, schedule: Q04DX003 (ip), vehicle: water | dose: 15.6 mg/kg/injection, schedule: Q01DX009 (ip), vehicle: clinical formulation | dose: 15.6 mg/kg/injection, schedule: Q03HX024 (oral), vehicle: clinical formulation | dose: 20.0 mg/kg/injection, schedule: Q01DX009 (oral), vehicle: water | dose: 20.0 mg/kg/injection, schedule: Q01DX009 (sc), vehicle: water | dose: 20.0 mg/kg/injection, schedule: Q03HX008 (ip), vehicle: water | dose: 20.0 mg/kg/injection, schedule: Q03HX016 (ip), vehicle: water | dose: 20.0 mg/kg/injection, schedule: Q04DX003 (ip), vehicle: water | dose: 31.3 mg/kg/injection, schedule: Q01DX009 (ip), vehicle: clinical formulation | dose: 31.3 mg/kg/injection, schedule: Q01DX009 (oral), vehicle: clinical formulation | dose: 31.3 mg/kg/injection, schedule: Q03HX008 (oral), vehicle: clinical formulation | dose: 31.3 mg/kg/injection, schedule: Q03HX016 (oral), vehicle: clinical formulation | dose: 31.3 mg/kg/injection, schedule: Q03HX024 (oral), vehicle: clinical formulation | dose: 40.0 mg/kg/injection, schedule: Q01DX009 (sc), vehicle: water | dose: 62.5 mg/kg/injection, schedule: Q01DX009 (ip), vehicle: clinical formulation | dose: 62.5 mg/kg/injection, schedule: Q01DX009 (oral), vehicle: clinical formulation | dose: 62.5 mg/kg/injection, schedule: Q03HX008 (oral), vehicle: clinical formulation | dose: 62.5 mg/kg/injection, schedule: Q03HX016 (oral), vehicle: clinical formulation | dose: 62.5 mg/kg/injection, schedule: Q03HX024 (oral), vehicle: clinical formulation | dose: 80.0 mg/kg/injection, schedule: Q01DX009 (sc), vehicle: water | dose: 125.0 mg/kg/injection, schedule: Q01DX009 (oral), vehicle: clinical formulation | dose: 125.0 mg/kg/injection, schedule: Q03HX008 (oral), vehicle: clinical formulation | dose: 125.0 mg/kg/injection, schedule: Q03HX024 (oral), vehicle: clinical formulation | dose: 125.0 mg/kg/injection, schedule: Q04DX003 (oral), vehicle: clinical formulation | dose: 160.0 mg/kg/injection, schedule: Q01DX001 (oral), vehicle: water | dose: 250.0 mg/kg/injection, schedule: Q01DX001 (oral), vehicle: clinical formulation | dose: 250.0 mg/kg/injection, schedule: Q01DX009 (oral), vehicle: clinical formulation | dose: 250.0 mg/kg/injection, schedule: Q04DX003 (oral), vehicle: clinical formulation | dose: 250.0 mg/kg/injection, schedule: Q08DX002 (oral), vehicle: clinical formulation | dose: 320.0 mg/kg/injection, schedule: Q01DX001 (sc), vehicle: water | dose: 500.0 mg/kg/injection, schedule: Q01DX001 (oral), vehicle: clinical formulation | dose: 500.0 mg/kg/injection, schedule: Q01DX009 (oral), vehicle: clinical formulation | dose: 500.0 mg/kg/injection, schedule: Q04DX003 (oral), vehicle: clinical formulation | dose: 500.0 mg/kg/injection, schedule: Q08DX002 (oral), vehicle: clinical formulation | dose: 640.0 mg/kg/injection, schedule: Q01DX001 (oral), vehicle: water | dose: 640.0 mg/kg/injection, schedule: Q01DX001 (sc), vehicle: water | dose: 1000.0 mg/kg/injection, schedule: Q01DX001 (oral), vehicle: clinical formulation | dose: 1000.0 mg/kg/injection, schedule: Q04DX003 (oral), vehicle: clinical formulation | dose: 1000.0 mg/kg/injection, schedule: Q08DX002 (oral), vehicle: clinical formulation | dose: 2000.0 mg/kg/injection, schedule: Q01DX001 (oral), vehicle: clinical formulation | dose: 2000.0 mg/kg/injection, schedule: Q08DX002 (oral), vehicle: clinical formulation | dose: 4000.0 mg/kg/injection, schedule: Q01DX001 (oral), vehicle: clinical formulation
8 of 8 (2×): dose: 5.0 mg/kg/injection, schedule: Q03HX024 (ip), vehicle: water | dose: 10.0 mg/kg/injection, schedule: Q01DX009 (ip), vehicle: water | dose: 10.0 mg/kg/injection, schedule: Q03HX024 (ip), vehicle: water | dose: 20.0 mg/kg/injection, schedule: Q01DX009 (ip), vehicle: water | dose: 20.0 mg/kg/injection, schedule: Q03HX024 (ip), vehicle: water | dose: 40.0 mg/kg/injection, schedule: Q01DX009 (oral), vehicle: water | dose: 40.0 mg/kg/injection, schedule: Q04DX003 (ip), vehicle: water | dose: 80.0 mg/kg/injection, schedule: Q01DX009 (oral), vehicle: water | dose: 160.0 mg/kg/injection, schedule: Q01DX009 (oral), vehicle: water
